The record followed here is article PMC9638019, “The archetypal gene transfer agent RcGTA is regulated via direct interaction with the enigmatic RNA polymerase omega subunit”.

These are yes or no findings as the source states them, for the method shown. For part of these data: Binding calls can cover weak binding; strength is not graded here.

One test addresses T25-GafA (R. capsulatus). In words: two-hybrid; bacterial adenylate cyclase two-hybrid (T18 and T25 fusions) in E. coli BTH101, 30°C, read by β-galactosidase assay (ONPG, Miller units).
Test [1] addresses T25-GafA-C^221–382 (R. capsulatus). The test is described as above.
In test [2] the target is T25-GafA-Cx^87–382 (R. capsulatus). Described as above.
Test [3] has as its target T25-GafA-N^1–226 (R. capsulatus). The description is as above.
The target of test [4] is T25-GafA-CenN (amino acids 87–226) (R. capsulatus). The description is as above.
For test [5], the target named is T25-GafA-Cen2 (amino acids 87–212) (R. capsulatus). The test is described as above.
In test [6] the target is Maltose Binding Protein-GafA fusion protein (R. capsulatus). The experiment in a line: pull-down; MBP-tagged GafA protein held on amylose magnetic beads as bait, 2 mg/ml H6-RpoZ in solution as prey, 2 h at 4°C, 200 mM NaCl, 20 mM Tris, 1 mM EDTA, pH 7.4; washes with 0.05% Tween 20; eluted with 10 mM maltose; stained SDS-PAGE; both purified.
Test [7] addresses MBP-GafA-Cx^87–382 (R. capsulatus). The test is described as above.

B1: T18-Rpo-α (protein, UniProt D5AM21 1-338)
chain: MIHKNWAELIKPTQLEIKAGNDPQRQATVIAEPLERGFGLTLGNALRRVLMSSLQGAAITSVQIDNVLHEFSSVAGVREDVTDIILNLKGISLKMDVEGPKRLSISAKGPRVVTGADISESMGIEVLNKDHVICHLDDGADVFMELTVNTGKGYVAADKNRPEDAPIGLIPIDAIYSPVKKVAYDVQPTREGQVLDYDKLTMKIETDGSLTPEDAVAYAARILQDQLSIFVNFEEPESASKTDADDGLEFNPLLLKKVDELELSVRSANCLKNDNIVYIGDLIQKTEAEMLRTPNFGRKSLNEIKEVLSSMGLHLGMEVEDWPPENIEDLAKRFEDQF
For B1, the binding result with T25-GafA (R. capsulatus) was “no binding”.

B2: T18-Rpo-ω (protein, UniProt D5AS20 1-117)
chain: MARVTVEDCVDKVPNRFELVMLAAHRAREVAAGAPITVERDNDKNPVVALREIADETQLADDLRERLIESNQTQIEVDEPEEDAMALLMSGEIDRPRVDDMDEERMLRALMDAQGRD
In the case of B2, the binding result in test [1] is “no binding”; in test [2] it was “binds”; in test [3], “binds”; in test [4] it was “binds”; in test [5], “binds”; with T25-GafA (R. capsulatus), “binds”.

B3: H6-Rpo-ω (protein, UniProt D5AS20 1-117)
chain: B2 chain
B3: the binding result in test [6] and in test [7] was “binds” in each case.
